Test results taken from PMC6675128.
No constants are given. Whether binding was seen depends on the method and setting. In cells and extracts the contact can be indirect. Some entries that bind do so weakly or less than the wild type. Sequences can lack the tags named with a protein.

Biological target: T1, BCDIN3D tagged with a FLAG tag at its C-terminus (human) (UniProt Q7Z5W3)
T1 sequence: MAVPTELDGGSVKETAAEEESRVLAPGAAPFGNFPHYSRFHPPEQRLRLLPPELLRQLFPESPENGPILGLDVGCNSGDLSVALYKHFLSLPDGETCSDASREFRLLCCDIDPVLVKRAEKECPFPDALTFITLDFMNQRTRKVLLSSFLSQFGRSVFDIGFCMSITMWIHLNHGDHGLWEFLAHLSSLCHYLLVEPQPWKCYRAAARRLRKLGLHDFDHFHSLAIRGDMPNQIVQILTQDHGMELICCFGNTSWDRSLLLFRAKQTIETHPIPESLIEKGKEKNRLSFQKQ
Test: co-IP; FLAG eluates and inputs of Hela-S3-Flp-In Control and BCDIN3Df cells analysed by western blot with a TRMT5 antibody

- binding: binds
B1: TRMT5 (enzyme, UniProt Q32P41 1-509)
chain: MVLWILWRPFGFSGRFLKLESHSITESKSLIPVAWTSLTQMLLEAPGIFLLGQRKRFSTMPETETHERETELFSPPSDVRGMTKLDRTAFKKTVNIPVLKVRKEIVSKLMRSLKRAALQRPGIRRVIEDPEDKESRLIMLDPYKIFTHDSFEKAELSVLEQLNVSPQISKYNLELTYEHFKSEEILRAVLPEGQDVTSGFSRIGHIAHLNLRDHQLPFKHLIGQVMIDKNPGITSAVNKINNIDNMYRNFQMEVLSGEQNMMTKVRENNYTYEFDFSKVYWNPRLSTEHSRITELLKPGDVLFDVFAGVGPFAIPVAKKNCTVFANDLNPESHKWLLYNCKLNKVDQKVKVFNLDGKDFLQGPVKEELMQLLGLSKERKPSVHVVMNLPAKAIEFLSAFKWLLDGQPCSSEFLPIVHCYSFSKDANPAEDVRQRAGAVLGISLEACSSVHLVRNVAPNKEMLCITFQIPASVLYKNQTRNPENHEDPPLKRQRTAEAFSDEKTQIVSNT
